Source: ChEMBL document CHEMBL3988442, “University of Dundee, Small-Polar-MMV Screening Library” (2021).

Sequences of proteins named here, by UniProt entry; tags and fusion partners are left off. Residues count along the entry.
UniProt Q4DA54, 1-478: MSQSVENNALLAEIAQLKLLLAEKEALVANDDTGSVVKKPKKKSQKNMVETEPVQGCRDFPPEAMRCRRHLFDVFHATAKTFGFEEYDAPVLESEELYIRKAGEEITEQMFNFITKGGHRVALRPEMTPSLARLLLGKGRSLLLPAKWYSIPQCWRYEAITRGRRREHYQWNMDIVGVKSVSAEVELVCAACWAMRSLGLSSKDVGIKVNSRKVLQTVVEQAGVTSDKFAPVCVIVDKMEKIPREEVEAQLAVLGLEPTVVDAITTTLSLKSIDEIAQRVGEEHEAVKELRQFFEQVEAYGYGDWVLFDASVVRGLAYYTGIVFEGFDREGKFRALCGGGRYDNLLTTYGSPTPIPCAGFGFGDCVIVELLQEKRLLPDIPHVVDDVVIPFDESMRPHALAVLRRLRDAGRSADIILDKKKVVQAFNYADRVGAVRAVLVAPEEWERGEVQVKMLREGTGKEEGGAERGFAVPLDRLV
UniProt P9WNZ1, whole entry: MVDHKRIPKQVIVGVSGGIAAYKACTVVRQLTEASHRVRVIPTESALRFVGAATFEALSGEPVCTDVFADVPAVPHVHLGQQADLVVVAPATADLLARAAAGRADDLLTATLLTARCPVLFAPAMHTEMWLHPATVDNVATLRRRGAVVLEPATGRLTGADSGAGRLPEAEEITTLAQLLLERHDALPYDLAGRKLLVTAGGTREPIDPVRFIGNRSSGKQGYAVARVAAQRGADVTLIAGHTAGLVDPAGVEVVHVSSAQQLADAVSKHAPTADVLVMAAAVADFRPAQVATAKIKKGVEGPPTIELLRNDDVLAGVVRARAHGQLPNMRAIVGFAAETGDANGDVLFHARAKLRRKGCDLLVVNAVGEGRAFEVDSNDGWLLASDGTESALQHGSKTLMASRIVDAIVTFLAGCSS

Values are the deposited “Percent Effect”, in %.
How 0% and 100% were set is not recorded. Most values in the screen are low, and negative values occur.
The compounds are a random part of those screened.

A: 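Histidine-tRNA ligase, Trypanosoma cruzi CL Brener (UniProt Q4DA54). Enzyme assay of histidyl-tRNA synthetase; the read-out is not stated. Concentration: 30 µM. Higher reads as stronger inhibition (inferred: compounds with an IC50 in retests scored well above the rest). Of about 69,000 compounds tested this way, about 31 (0.045%) reached 50% or more in at least one test.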
B: 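Enzyme assay of CoaBC with a phosphate dye (Biomol Green) read at 650 nm. Target: Coenzyme A biosynthesis protein CoaBC, Mycobacterium tuberculosis (UniProt P9WNZ1). Tested at 30 µM. Direction is inferred from only a few compounds that gave an IC50; most scored high, so higher reads as stronger inhibition. Most strong results did not repeat in a second test. Size under these conditions: about 67,000 compounds, about 40 of them at 50% or above in at least one test.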

{"compound": "CCCSCC(=O)NS(=O)(=O)c1ccc2c(c1)OCCO2", "A": 2.662, "B": -3.191}
{"compound": "COc1ccc(C)cc1C(=O)N1C[C@@H](CN(C)CCO)[C@@H](CO)C1", "A": 4.082, "B": 4.97}
{"compound": "Cc1cc(C)n(C2CCCN(C(=O)Cc3ccc(C#N)cc3)C2)n1", "stereo": "centres undefined", "A": 5.143, "B": 5.249}
{"compound": "CC1(C)OCC2(CO1)CN(C(=O)c1cccc3ccccc13)C2", "A": 3.093, "B": 2.326}
{"compound": "CN1CCN(S(=O)(=O)c2ncn(C)c2Cl)CC1", "A": 3.941, "B": 0.641}
{"compound": "O=C(Cn1nc2c(cc1=O)CCCC2)N[C@@H](C(=O)O)c1ccccc1", "A": 4.918, "B": -3.096}
{"compound": "COc1ccc(Cl)cc1C(=O)N(C)Cc1cc(C)on1", "A": -1.667, "B": 15.37}
{"compound": "CSC(C)CC(=O)N1CCC(n2ccnn2)CC1", "stereo": "centres undefined", "A": 6.358, "B": 2.233}
{"compound": "CN1CCN(S(=O)(=O)c2cncc(F)c2)c2ccccc2C1", "A": 8.621, "B": 3.34}
{"compound": "Cc1nc2c(c(N(C)Cc3ccccc3-n3cccn3)n1)CCNCC2", "A": 0.4878, "B": 5.897}
{"compound": "FC(F)(F)c1cc(N2CCc3ncnc(NC4CC4)c3CC2)ncn1", "A": 0.5405, "B": 2.411}
{"compound": "O=C(CCc1ccccc1)N1CCCCC1C1OCCO1", "stereo": "centres undefined", "A": 3.933, "B": 1.006}
{"compound": "Cc1ccc(CC(=O)N(C)CC2(O)CCN(c3ccccn3)C2)s1", "stereo": "centres undefined", "A": 2.703, "B": 0.2778}
{"compound": "Cc1ncsc1C(=O)N(C)CCc1ccncc1", "A": 2.662, "B": 0.266}
{"compound": "COc1ccc(C(=O)N(Cc2cnn(C)c2)C(C)C)cc1Br", "A": -3.03, "B": 3.506}
{"compound": "CN1CC(=O)N(c2ccsc2)CC12CCN(C(=O)c1ccccc1)C2", "stereo": "centres undefined", "A": 4.918, "B": 2.96}
{"compound": "CCC1CN(c2cnn(C)c(=O)c2Br)CCO1", "stereo": "centres undefined", "A": 2.597}
{"compound": "c1ccc(N2CCOCC3(CCCN(c4nccs4)C3)C2)nc1", "stereo": "centres undefined", "A": -20.1, "B": 6.947}
{"compound": "CC(C)CCNc1c(C#N)c2c(c3nncn13)CN(C)CC2", "A": -3.659, "B": 4.557}
{"compound": "CCN(CC)c1nc2ccsc2c(=O)n1CCC(=O)NCc1ccco1", "A": -2.439, "B": 0.7595}
{"compound": "Cc1nc(NC(=O)c2c3c(nn2C2CCS(=O)(=O)C2)CCC3)sc1C", "stereo": "centres undefined", "A": 1.587, "B": 4.175}
{"compound": "CC(O)CN(C)c1cc(C(F)(F)F)nc(-c2cccnc2)n1", "stereo": "centres undefined", "A": 18.33, "B": -3.719}
{"compound": "CN(C)C(CNC(=O)c1nc(N2CCOCC2)ncc1Cl)c1cccs1", "stereo": "centres undefined", "A": 5.263}
{"compound": "CCn1ncc2c1C(COCC1CC1)N(Cc1c(C)noc1C)CC2", "stereo": "centres undefined", "A": 5.882, "B": -2.5}
{"compound": "Cc1sc(C(=O)N(C)S(C)(=O)=O)cc1-c1ccc(F)cc1", "A": 2.762, "B": 0.6369}
{"compound": "CN(Cc1cccnc1)C[C@H]1OC[C@@H]2CCN(C(=O)C3CC3)C[C@@H]21", "A": 3.093, "B": 5.911}
{"compound": "CCC(C)(C)NC(=O)Cn1nnc(CN(C)C(=O)c2ccccc2)n1", "A": 3.879, "B": 1.648}
{"compound": "CN(C)CCNC(=O)c1ccccc1NC(=O)c1cc(Cl)ccc1Cl", "A": 4.95, "B": 4.01}
{"compound": "CCn1cc(CNC(=O)c2nn(CC)cc2Br)cn1", "A": 2.632, "B": -3.789}
{"compound": "O=C(Cn1cc(I)cn1)Nc1cccnc1", "A": 0, "B": 4.993}

Repeated from the top, 2 entries:

- CCCSCC(=O)NS(=O)(=O)c1ccc2c(c1)OCCO2 | A: 2.662%; B: -3.191%
- COc1ccc(C)cc1C(=O)N1C[C@@H](CN(C)CCO)[C@@H](CO)C1 | A: 4.082%; B: 4.97%